Test results reported in US20110117009A1, “DRUG CONJUGATES WITH POLYGLYCEROLS” (FREIE UNIVERSITÄT BERLIN, priority 2008, published 2011).

Tested on: MDA-MB 231
Test: Cytotoxicity, luciferase readout after 72 h
Type: cell-based
Settings: Homo sapiens; MDA-MB 231, 72 h
Description: After 72 h cells were lysed in 100 μL of luciferase assay buffer, and an aliquot of the lysate was assayed for luciferase activity.

SMILES: COc1cccc2c1C(=O)c1c(O)c3c(c(O)c1C2=O)C[C@@](O)(C(=O)CO)C[C@@H]3O[C@H]1C[C@H](N)[C@H](O)[C@H](C)O1 [Doxorubicin, doxorubicin]
- IC50: 140 nM
